Test results published in patent US20160214941A1, “Compounds for lnhibition of Unregulated Cell Growth” (GODAVARI BIOREFINERIES LIMITED, priority 2013, published 2016).

Key:
Format in all cases: cell-based
MDA MB 231 [1] = assay: In vitro colorimetric cell death assay (MTT assay); details: MDA MB 231 (breast cancer), 48 hours
Protocol: MTT assay was carried for assessing cell viability where the cells were grown in two-dimensional surface. The procedure for the assay is as follows. Cancer cells were plated in 96 well plates as per predetermined plating efficiency. The plates were incubated for 24 hours in a 5% CO2 atmosphere at 37° C., a range of concentrations of the compound of the present invention was added to the wells, the plates were incubated further for 48 hours in a 5% CO2 atmosphere, the plates were centrifuged twice at 3000 rpm for 3 minutes, the supernatant fluid was discarded, 100 uL of 0.5 mg/mL MIT solution was added and the plates were incubated for 4 hours in a 5% CO2 atmosphere at 37° C. The plates were then centrifuged twice at 3000 rpm for 3 minutes, supernatant was aspirated very carefully, 200 uL DMSO was added to each well to solubilize MTT crystals and mixed well by shaking the plates, the plates were incubated for 10 minutes in a 5% CO2 atmosphere at 37° C., the plates were placed on the shaker of an ELISA plate reader and the absorbance at 570 nm was measured, then the percentage of viable cells remaining was calculated by first subtracting the background absorbance then comparing to the absorbance of a non-drug-treated cell sample, and the results were plotted on a graph to determine the IC50 for the compound as known in the art. The reference drug used was Cisplatin.

MCF 7 = assay: In vitro soft agar colony forming growth assay; details: MCF 7, one week
Protocol: (§1) Compounds of Formula IV were evaluated in an in vitro soft agar colony forming growth inhibition assay as described by Lieber, M M, and Kovach, J S. Soft agar colony formation assay for chemotherapeutic sensitivity of human solid tumors. Mayo Clin Proc 1982; 57: 527-528 and Tanigawa, N, Kern, D H, Kikasa, Y, and Morton, D L. Rapid assay for evaluating the chemosensitivity of human tumors in soft agar culture. Cancer Res 1982; 42: 2159-2164.
(§2) An exemplary procedure for the in vitro soft agar colony forming growth inhibition assay is as follows.

HeLa = assay: In vitro soft agar colony forming growth assay; details: one week
Protocol: as §1, §2

MDA MB 231 [2] = assay: In vitro soft agar colony forming growth assay; details: MDA MB 231, one week
Protocol: as §1, §2

N.N.[Cl][Pt][Cl] [Cisplatin]
IC50 (MDA MB 231 [1]): 75.2 µM
IC50 (MCF 7): 38.9 µM
IC50 (HeLa): 3.5 µM
IC50 (MDA MB 231 [2]): 38.9 µM
